Data: patent US20170038384A1, “TREATMENT OF TUMORS EXPRESSING MUTANT P53” (SLOAN-KETTERING INSTITUTE FOR CANCER RESEARCH, priority 2014, published 2017)

Test system: murine KPC pancreatic cancer cells
Experiment: MTS assay of KPC cell viability/proliferation
Assay type: cell-based
Settings: Mus musculus, 72 hours, read-out: IC50, inhibit cell proliferation
Protocol: FIG. 5B is a graph of MTS assay (E490) of murine KPC and human A2.1 cells treated with crenolanib with various doses for 72 hours. Normalized values are expressed as means±SD form quadruple replicates.
Normalized values are expressed as means±SD form quadruple replicates.
All cell lines were maintained in DMEM+10% FBS, at 37° C. in 5% CO2. Stable cell lines expressing shRNAs were generated by retroviral mediated gene transfer. Briefly, Phoenix or Ampho packaging cells (for murine or human cell lines, respectively) were transfected by the calcium phosphate method with vectors expressing NF-YA, NF-YB, p53, p73, PDGFRa, PDGFRb or Renilla-control shRNAs, and the generated viruses were harvested to infect KPC, KPflC, or a series of human pancreatic, breast, lung and colon cancer cell lines. Infected cells were selected with puromycin and experiments were carried out on derived cell populations. To generate cells stably expressing mutant p53, p73 or PDGFRb, KPflC cells were infected with MSCV-p53-R175H, -R273H, PDGFRb or pcDNA3-HA-p73α and selected in puromycin and G418 respectively to yield stable pools.

## Cc1ccc(NC(=O)c2ccc(CN3CCN(C)CC3)cc2)cc1Nc1nccc(-c2cccnc2)n1 [imatinib]
  IC50: 29.7 µM
